Measured values reported in article PMC2644779.
Results are given in words; binding and its absence hold for the method and conditions named. For part of these data: In cells and extracts the contact can be indirect. Some results given as binding are weak or reduced against the parent protein; the word gives no strength. For part of these data: Tags and fused reporters may be left off the sequences shown.

How the values were obtained:
PINK1(1-509)-V5 (human) [1] = target: PINK1(1-509)-V5 (human) (UniProt Q9BXM7); experiment: co-IP; repeat of the co-IP experiments in COS and HeLa cells, data not shown
[2] = target: E417G-PINK1, full length, C-terminally tagged (human) (UniProt Q9BXM7); experiment: as above
[3] = target: L347P-PINK1, full length, C-terminally tagged (human) (UniProt Q9BXM7); experiment: as above
PINK1(1-525)-V5 (human) [4] = target: PINK1(1-525)-V5 (human) (UniProt Q9BXM7); experiment: as above
PINK1(1-509)-V5 (human) [5] = target: PINK1(1-509)-V5 (human) (UniProt Q9BXM7); experiment: co-IP; HEK293 cells co-transfected with a pair of differently tagged PINK1 constructs; lysis buffer 50 mM Tris pH 7.4, 150 mM NaCl, 1 mM EDTA, 0.1% Triton; IP by one tag (anti-Flag, anti-V5 or anti-GFP) at 4°C, Western blot for the other tag
[6] = target: E417G-PINK1, full length, C-terminally tagged (human) (UniProt Q9BXM7); experiment: as above
[7] = target: L347P-PINK1, full length, C-terminally tagged (human) (UniProt Q9BXM7); experiment: as above
PINK1(1-525)-V5 (human) [8] = target: PINK1(1-525)-V5 (human) (UniProt Q9BXM7); experiment: as above
[9] = target: T1, wild type PINK1 (PTEN induced kinase 1), full length, C-terminally tagged (human), Q9BXM7; experiment: as above; details: remark: other sources report otherwise
T1 chain: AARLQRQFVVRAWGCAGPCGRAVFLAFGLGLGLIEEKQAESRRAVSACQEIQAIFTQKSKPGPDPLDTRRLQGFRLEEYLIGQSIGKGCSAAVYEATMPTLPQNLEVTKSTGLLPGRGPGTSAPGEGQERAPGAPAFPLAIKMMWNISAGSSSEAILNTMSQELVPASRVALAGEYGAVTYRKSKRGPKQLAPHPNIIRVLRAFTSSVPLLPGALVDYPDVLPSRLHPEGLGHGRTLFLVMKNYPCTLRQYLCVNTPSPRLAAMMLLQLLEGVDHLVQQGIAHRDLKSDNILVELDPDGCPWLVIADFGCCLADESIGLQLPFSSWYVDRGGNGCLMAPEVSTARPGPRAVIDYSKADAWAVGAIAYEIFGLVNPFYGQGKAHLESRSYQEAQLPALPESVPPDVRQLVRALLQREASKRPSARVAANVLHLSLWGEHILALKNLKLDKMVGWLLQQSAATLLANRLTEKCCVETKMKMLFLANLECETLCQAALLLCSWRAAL

[10] = target: T1, wild type PINK1 (PTEN induced kinase …); experiment: co-IP; repeat of the co-IP experiments in COS and HeLa cells, data not shown; details: remark: other sources report otherwise
[11] = target: T2, endogenous PINK1 (human (endogenous in SH-SY5Y)), Q9BXM7; experiment: sucrose gradient sedimentation; mitochondrial proteins of SH-SY5Y cells (infected with PINK1 adenoviruses, or endogenous PINK1) sub-fractionated on a 15% to 35% discontinuous sucrose gradient, fractions 1-10, SDS-PAGE and Western blot; details: remark: other sources report otherwise
T2 chain: T1 chain

Measured: binding

wild type PINK1 (PTEN induced kinase 1), full length, C-terminally tagged (from UniProt Q9BXM7 78-581)
not listed: [9] | [10] | [11]
binds: all other assays above

E417G-PINK1, full length, C-terminally tagged (from UniProt Q9BXM7 78-581)
binds: [2] | [6]

L347P-PINK1, full length, C-terminally tagged (from UniProt Q9BXM7 78-581)
binds: [3] | [7]

B1: wild type PINK1 (PTEN induced kinase 1), full length, C-terminally tagged, Q9BXM7 78-581 (protein)
chain: T1 chain
binds: [9] | [10]

B2: endogenous PINK1, Q9BXM7 78-581 (protein)
chain: T1 chain
binds: [11]
